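Plate-reader measure of the Venus reporter marking one vaccinia stage in infected cells (the cell line is not named here); read time unknown. The test concentration is not given here. Percent change in Venus reporter signal; lower (more negative) values mean stronger inhibition of that viral stage.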

Values are in %. How 0% and 100% were set is not given here. Common to all entries: measured here: Venus reporter, other viral stage. This is a side read-out of the assay, for part of the compounds, not drawn at random.

| structure | activity change (Venus) (%) |
|---|---|
| `C[C@H]1CN([C@@H](C)CO)C(=O)c2cc(C#Cc3cccc(F)c3)cnc2O[C@H]1CN(C)C(=O)C1CCCCC1` | -22.81 |
| `C[C@@H]1CN([C@@H](C)CO)C(=O)c2cc(NC(=O)Nc3ccc(F)cc3)ccc2O[C@@H]1CN(C)Cc1ccccc1` | -20.31 |
| `C[C@@H]1CCCCO[C@H](CN(C)C(=O)c2ccccc2)[C@@H](C)CN([C@@H](C)CO)C(=O)c2cc(NC(=O)CCC(F)(F)F)ccc2O1` | -26.11 |
| `COc1ccccc1NC(=O)N[C@@H]1C=C[C@@H](CC(=O)N2CCC(Cc3ccccc3)CC2)O[C@H]1CO` | -18.66 |
| `COc1ccc2c3c(n(C)c2c1)[C@H](CO)N(C(=O)Nc1ccccc1F)CC31CCN(C(=O)c2ccccc2F)CC1` | -34.47 |
| `COc1cccc(-c2cccc(-c3nc(C(=O)NCC(F)(F)F)cc4c3[C@H](CCO)N([S@@](=O)C(C)(C)C)C4)c2)c1` | -24.4 |
| `O=C(Nc1cc(F)ccc1F)N1CC(=O)N2[C@H](C1)[C@@H](c1ccc(-c3ccc(F)cc3)cc1)[C@@H]2CO` | -34.92 |
| `COc1ccc(CN(C)C[C@H]2OCCCC[C@H](C)Oc3ccc(NC(=O)Nc4cccc5ccccc45)cc3C(=O)N([C@@H](C)CO)C[C@@H]2C)cc1` | -29.25 |
| `Cc1noc(C)c1NC(=O)N(C)C[C@H]1Oc2cc(C#CCC3CCCC3)ccc2S(=O)(=O)N([C@H](C)CO)C[C@H]1C` | -71.83 |
| `O=C(C[C@@H]1CC[C@@H]2[C@H](COC[C@H](O)CN2Cc2nccs2)O1)NCc1ccc(Oc2ccccc2)cc1` | -30.42 |
| `C[C@@H]1CN([C@@H](C)CO)C(=O)Cc2cc(NC(=O)Nc3ccc(C(F)(F)F)cc3)ccc2O[C@@H]1CN(C)Cc1ccc(C(F)(F)F)cc1` | -34.57 |
| `C[C@@H]1CCCCO[C@H](CN(C)Cc2ccc3c(c2)OCO3)[C@@H](C)CN([C@@H](C)CO)C(=O)c2cc(NC(=O)Nc3ccc(F)cc3)ccc2O1` | -75.56 |
| `COc1ccc(CNC(=O)N(C)C[C@@H]2OCc3ccccc3-c3c(n(C)c4ccccc34)C(=O)N([C@H](C)CO)C[C@H]2C)cc1` | -33.94 |
| `O=C(C[C@@H]1CC[C@@H]2[C@H](COC[C@H](O)CN2CCC(F)(F)F)O1)NCc1ccc(Oc2ccccc2)cc1` | -42.75 |
| `COc1ccc2c3c([nH]c2c1)[C@@H](CO)N(C(C)=O)CC31CN(Cc2cc(-c3ccccc3)on2)C1` | -45.18 |
| `Cc1ccc(S(=O)(=O)N(C)C[C@@H]2OCCCC[C@@H](C)Oc3ccc(NC(=O)c4ccccc4)cc3C(=O)N([C@@H](C)CO)C[C@H]2C)cc1` | -31.4 |
| `Cc1noc(C)c1S(=O)(=O)Nc1ccc2c(c1)C(=O)N([C@H](C)CO)C[C@@H](C)[C@H](CN(C)S(=O)(=O)c1ccccc1)OCCCC[C@@H](C)O2` | -35.61 |
| `Cc1ccccc1-c1ccc2c(c1)O[C@H](CN(C)C(=O)Nc1ccccc1)[C@H](C)CN([C@@H](C)CO)S2(=O)=O` | -19.47 |
| `C[C@@H]1CN([C@H](C)CO)C(=O)Cc2cc(NC(=O)Nc3ccc(C(F)(F)F)cc3)ccc2O[C@@H]1CN(C)S(=O)(=O)c1ccccc1` | -38.77 |
| `C[C@H]1CN([C@@H](C)CO)S(=O)(=O)c2ccc(C#Cc3ccccc3F)cc2O[C@@H]1CN(C)C(=O)c1ccc2c(c1)OCO2` | -51.07 |
| `CO[C@H]1CN(C)C(=O)c2cc(NC(=O)c3nc4ccccc4s3)ccc2OC[C@@H](C)N(Cc2cccnc2)C[C@@H]1C` | -41.98 |
| `C[C@@H]1CCCCO[C@H](CN(C)Cc2ccc3c(c2)OCO3)[C@H](C)CN([C@@H](C)CO)C(=O)c2cc(NC(=O)NC3CCCCC3)ccc2O1` | -53.77 |
| `CN1c2ccc(-c3cccc(F)c3)cc2[C@@H]2[C@@H](CCN2C(=O)c2ccc3c(c2)OCO3)[C@@H]1CO` | -64.82 |
| `C[C@@H]1CN([C@@H](C)CO)C(=O)c2cc(NS(=O)(=O)c3ccc(Cl)cc3)ccc2O[C@H]1CN(C)Cc1ccc(Oc2ccccc2)cc1` | -43.92 |
| `CC(C)NC(=O)Nc1ccc2c(c1)CC(=O)N([C@@H](C)CO)C[C@@H](C)[C@H](CN(C)Cc1ccc(-c3ccccc3)cc1)O2` | -55.46 |
| `C[C@H](CO)N1C[C@H](C)[C@@H](CN(C)Cc2ccc(Cl)c(Cl)c2)OCCCC[C@H](C)Oc2ccc(NS(=O)(=O)c3ccc(Cl)cc3)cc2C1=O` | -35.48 |
| `C[C@H]1CN([C@@H](C)CO)S(=O)(=O)c2ccc(C#Cc3ccccc3)cc2O[C@H]1CN(C)S(=O)(=O)c1cn(C)cn1` | -36.36 |
| `O=C(Nc1ccc(-c2ccccc2)cc1)[C@H]1[C@H](CO)[C@H]2Cn3c(cccc3=O)[C@H]2N1CC1CCCC1` | -57.1 |
| `O=C(c1ccccn1)N1CC[C@@H]2[C@H](CO)Nc3ccc(-c4ccccc4)cc3[C@@H]21` | -29.62 |
| `COc1ccc(NC(=O)N2CCCCN3[C@H](CO)[C@@H](c4ccc(C5=CCCCC5)cc4)[C@H]3C2)cc1` | -77.2 |
| `COc1ccc(S(=O)(=O)Nc2ccc3c(c2)C(=O)N([C@@H](C)CO)C[C@@H](C)[C@H](CN(C)Cc2ccc(C(F)(F)F)cc2)O3)cc1` | -45.72 |
| `C[C@@H]1CCCCO[C@H](CN(C)Cc2ccc3c(c2)OCO3)[C@@H](C)CN([C@@H](C)CO)C(=O)c2cc(NS(=O)(=O)c3ccccc3)ccc2O1` | -48.4 |
| `C[C@H](CO)N1C[C@H](C)[C@@H](CN(C)CC2CCOCC2)Oc2cc(C#Cc3ccccc3F)ccc2S1(=O)=O` | -36.81 |
| `O=C1CN(S(=O)(=O)Cc2ccccc2)C[C@@H]2[C@@H](c3ccc(C#Cc4cccc(F)c4)cc3)[C@H](CO)N12` | -43.55 |
| `COc1ccccc1C(=O)Nc1ccc2c(c1)C(=O)N(C)[C@H]1CC[C@@H](CC(=O)NCc3ccc(Cl)c(Cl)c3)O[C@@H]1CO2` | -35.17 |
| `CCCC#Cc1ccc([C@H]2[C@@H](CO)N3CCCCN(S(=O)(=O)c4ccccc4C)C[C@@H]23)cc1` | -42.67 |
| `COc1ccc(S(=O)(=O)Nc2cccc3c2O[C@H](CN(C)Cc2ccc(-c4ccccc4)cc2)[C@H](C)CN([C@H](C)CO)C3=O)cc1` | -34.45 |
| `O=C(c1cnccn1)N1CC(=O)N2[C@H](CO)[C@H](c3ccc(C#CCC4CCCC4)cc3)[C@H]2C1` | -70.4 |
| `COc1ccccc1NC(=O)N1CCCCN2[C@H](CO)[C@@H](c3ccc(C#CC4CC4)cc3)[C@@H]2C1` | -30.66 |
| `CC(C)NC(=O)Nc1ccc2c(c1)C(=O)N([C@H](C)CO)C[C@@H](C)[C@H](CN(C)Cc1ccc(Cl)c(Cl)c1)OCCCC[C@H](C)O2` | -61.13 |
| `C[C@H](CO)N1C[C@H](C)[C@H](CN(C)S(=O)(=O)c2cccs2)Oc2ncc(-c3cccc(C(F)(F)F)c3)cc2C1=O` | -47.28 |
| `C[C@@H]1CN([C@H](C)CO)C(=O)c2cc(NS(=O)(=O)c3ccc(Cl)cc3)ccc2O[C@@H](C)CCCCO[C@@H]1CN(C)Cc1ccc2c(c1)OCO2` | -62.51 |

The first 4 entries again:

| structure | activity change (Venus) (%) |
|---|---|
| `C[C@H]1CN([C@@H](C)CO)C(=O)c2cc(C#Cc3cccc(F)c3)cnc2O[C@H]1CN(C)C(=O)C1CCCCC1` | -22.81 |
| `C[C@@H]1CN([C@@H](C)CO)C(=O)c2cc(NC(=O)Nc3ccc(F)cc3)ccc2O[C@@H]1CN(C)Cc1ccccc1` | -20.31 |
| `C[C@@H]1CCCCO[C@H](CN(C)C(=O)c2ccccc2)[C@@H](C)CN([C@@H](C)CO)C(=O)c2cc(NC(=O)CCC(F)(F)F)ccc2O1` | -26.11 |
| `COc1ccccc1NC(=O)N[C@@H]1C=C[C@@H](CC(=O)N2CCC(Cc3ccccc3)CC2)O[C@H]1CO` | -18.66 |

The results are deposited in PubChem (AID1053133; Broad Institute, 2014).